No constants are given. Whether binding was seen depends on the method and setting. A result given as binding can be weak or reduced; the word gives no strength. Where a sequence is shown, tags or fusion partners need not be part of it.
Legend:
Assay in all cases: BiFC in rice protoplasts
[1] = target: N-terminus of YFP-tagged OsSPL17 (rice)
[2] = target: N-terminus of YFP-tagged OsSPL5 (rice)
[3] = target: N-terminus of YFP-tagged OsSPL4 (rice)
[4] = target: N-terminus of YFP-tagged OsSPL3 (rice)

Measured: binding

B1: C-terminus of YFP-tagged OsOTUB1.1 (enzyme)
chain: MGGDYYHSCCGDPDPDLRAPEGPKLPYVGDKEPLSTLAAEFQSGSPILQEKIKLLGEQYDALRRTRGDGNCFYRSFMFSYLEHILETQDKAEVERILKKIEQCKKTLADLGYIEFTFEDFFSIFIDQLESVLQGHESSIGAEELLERTRDQMVSDYVVMFFRFVTSGEIQRRAEFFEPFISGLTNSTVVQFCKASVEPMGEESDHVHIIALSDALGVPIRVMYLDRSSCDAGNISVNHHDFSPEANSSDGAAAAEKPYITLLYRPGHYDILYPK
notes: BiFC construct expressed in rice protoplasts; also called cYFP-OsOTUB1; cYFP-OsOTUB1.1; not shown: C-terminal fragment of YFP from vector pSY-735-35S-cYFP-HA
binds: [1] | [2] | [3] | [4]

Source: patent US20210017532A1 (INSTITUTE OF GENETICS AND DEVELOPMENTAL BIOLOGY CHINESE …, published 2021)
